A short description of the data set: Quantitative urine testing of patients prescribed Latuda for compliance over 5 days (Examples 2-7).

The source gives many values for each of these; only a part stands here.

Regarding Lurasidone, the urine concentration was 15.6 ng/mL (60 mg/day Latuda, Day 1, individual subjects); 37.3 ng/mL (60 mg/day Latuda, Day 5, individual subjects); 94.9 ng/mL (100 mg/day Latuda, Day 1, subject twenty-one); 62.5 ng/mL (100 mg/day Latuda, Day 4, subject twenty-one); 64.5 ng/mL (100 mg/day Latuda, Day 5, subject twenty-one).

The values above are taken from patent US9606132B2, “Methods of monitoring adherence to lurasidone therapy” (Ameritox, Ltd., priority 2013, dated 2017).
